Some of the results follow.
Columns and labels:
Assay in all cases: glycan array binding signal (z-score within array); higher = stronger binding
Details in all cases: glycan notation: IUPAC condensed, linker removed
GlcNAc(b1-3)Fuc = target: GlcNAc(b1-3)Fuc
Outline: (§1)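 The binding signal is a Z-score computed within each array. Data were drawn from 3228 arrays in the Consortium for Functional Glycomics database, restricted to those with a known protein sequence. Scores were averaged over arrays of the same protein sequence at different concentrations or buffers, and over linkers, and negative values can be taken as non-binding.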

GlcNAc(b1-3)Gal = target: GlcNAc(b1-3)Gal
Outline: as §1

[1] = target: GlcNAc(b1-3)Gal(b1-3)GalNAc
Outline: as §1

GlcNAc(b1-3)Gal(b1-4)Glc = target: GlcNAc(b1-3)Gal(b1-4)Glc
Outline: as §1

[2] = target: GlcNAc(b1-3)Gal(b1-4)GlcNAc
Outline: as §1

[3] = target: GlcNAc(b1-3)Gal(b1-4)GlcNAc(b1-2)Man(a1-3)[GlcNAc(b1-3)Gal(b1-4)GlcNAc(b1-2)Man(a1-6)]Man(b1-4)GlcNAc(b1-4)GlcNAc
Outline: as §1

[4] = target: GlcNAc(b1-3)Gal(b1-4)GlcNAc(b1-2)Man(a1-3)[GlcNAc(b1-3)Gal(b1-4)GlcNAc(b1-2)Man(a1-6)]Man(b1-4)GlcNAc(b1-4)[Fuc(a1-6)]GlcNAc
Outline: as §1

[5] = target: GlcNAc(b1-3)Gal(b1-4)GlcNAc(b1-2)[GlcNAc(b1-3)Gal(b1-4)GlcNAc(b1-6)]Man(a1-6)[GlcNAc(b1-3)Gal(b1-4)GlcNAc(b1-2)Man(a1-3)]Man(b1-4)GlcNAc(b1-4)GlcNAc
Outline: as §1

[6] = target: GlcNAc(b1-3)Gal(b1-4)GlcNAc(b1-3)Gal(b1-4)GlcNAc
Outline: as §1

[7] = target: GlcNAc(b1-3)Gal(b1-4)GlcNAc(b1-3)Gal(b1-4)GlcNAc(b1-2)Man(a1-3)[GlcNAc(b1-3)Gal(b1-4)GlcNAc(b1-3)Gal(b1-4)GlcNAc(b1-2)Man(a1-6)]Man(b1-4)GlcNAc(b1-4)GlcNAc
Outline: as §1

[8] = target: GlcNAc(b1-3)Gal(b1-4)GlcNAc(b1-3)Gal(b1-4)GlcNAc(b1-2)Man(a1-3)[GlcNAc(b1-3)Gal(b1-4)GlcNAc(b1-3)Gal(b1-4)GlcNAc(b1-2)Man(a1-6)]Man(b1-4)GlcNAc(b1-4)[Fuc(a1-6)]GlcNAc
Outline: as §1

[9] = target: GlcNAc(b1-3)Gal(b1-4)GlcNAc(b1-3)Gal(b1-4)GlcNAc(b1-2)[GlcNAc(b1-3)Gal(b1-4)GlcNAc(b1-3)Gal(b1-4)GlcNAc(b1-6)]Man(a1-6)[GlcNAc(b1-3)Gal(b1-4)GlcNAc(b1-3)Gal(b1-4)GlcNAc(b1-2)Man(a1-3)]Man(b1-4)GlcNAc(b1-4)[Fuc(a1-6)]GlcNAc
Outline: as §1

[10] = target: GlcNAc(b1-3)Gal(b1-4)GlcNAc(b1-3)Gal(b1-4)GlcNAc(b1-3)Gal(b1-4)GlcNAc(b1-2)Man(a1-3)[GlcNAc(b1-3)Gal(b1-4)GlcNAc(b1-3)Gal(b1-4)GlcNAc(b1-3)Gal(b1-4)GlcNAc(b1-2)Man(a1-6)]Man(b1-4)GlcNAc(b1-4)GlcNAc
Outline: as §1

[11] = target: GlcNAc(b1-3)Gal(b1-4)GlcNAc(b1-3)Gal(b1-4)GlcNAc(b1-3)Gal(b1-4)GlcNAc(b1-2)Man(a1-3)[GlcNAc(b1-3)Gal(b1-4)GlcNAc(b1-3)Gal(b1-4)GlcNAc(b1-3)Gal(b1-4)GlcNAc(b1-2)Man(a1-6)]Man(b1-4)GlcNAc(b1-4)[Fuc(a1-6)]GlcNAc
Outline: as §1

[12] = target: GlcNAc(b1-3)Gal(b1-4)GlcNAc(b1-3)Gal(b1-4)GlcNAc(b1-3)Gal(b1-4)GlcNAc(b1-2)[GlcNAc(b1-3)Gal(b1-4)GlcNAc(b1-3)Gal(b1-4)GlcNAc(b1-3)Gal(b1-4)GlcNAc(b1-6)]Man(a1-6)[GlcNAc(b1-3)Gal(b1-4)GlcNAc(b1-3)Gal(b1-4)GlcNAc(b1-3)Gal(b1-4)GlcNAc(b1-2)Man(a1-3)]Man(b1-4)GlcNAc(b1-4)[Fuc(a1-6)]GlcNAc
Outline: as §1

[13] = target: GlcNAc(b1-3)Gal(b1-4)GlcNAc(b1-3)Gal(b1-4)GlcNAc(b1-3)Gal(b1-4)GlcNAc(b1-3)Gal(b1-4)GlcNAc(b1-2)Man(a1-3)[GlcNAc(b1-3)Gal(b1-4)GlcNAc(b1-3)Gal(b1-4)GlcNAc(b1-3)Gal(b1-4)GlcNAc(b1-3)Gal(b1-4)GlcNAc(b1-2)Man(a1-6)]Man(b1-4)GlcNAc(b1-4)GlcNAc
Outline: as §1

[14] = target: GlcNAc(b1-3)Gal(b1-4)GlcNAc(b1-3)Gal(b1-4)GlcNAc(b1-3)Gal(b1-4)GlcNAc(b1-3)Gal(b1-4)GlcNAc(b1-2)Man(a1-3)[GlcNAc(b1-3)Gal(b1-4)GlcNAc(b1-3)Gal(b1-4)GlcNAc(b1-3)Gal(b1-4)GlcNAc(b1-3)Gal(b1-4)GlcNAc(b1-2)Man(a1-6)]Man(b1-4)GlcNAc(b1-4)[Fuc(a1-6)]GlcNAc
Outline: as §1

[15] = target: GlcNAc(b1-3)Gal(b1-4)GlcNAc(b1-3)Gal(b1-4)GlcNAc(b1-3)Gal(b1-4)GlcNAc(b1-3)Gal(b1-4)GlcNAc(b1-2)[GlcNAc(b1-3)Gal(b1-4)GlcNAc(b1-3)Gal(b1-4)GlcNAc(b1-3)Gal(b1-4)GlcNAc(b1-3)Gal(b1-4)GlcNAc(b1-6)]Man(a1-6)[GlcNAc(b1-3)Gal(b1-4)GlcNAc(b1-3)Gal(b1-4)GlcNAc(b1-3)Gal(b1-4)GlcNAc(b1-3)Gal(b1-4)GlcNAc(b1-2)Man(a1-3)]Man(b1-4)GlcNAc(b1-4)[Fuc(a1-6)]GlcNAc
Outline: as §1

[16] = target: GlcNAc(b1-3)Gal(b1-4)GlcNAc(b1-3)Gal(b1-4)GlcNAc(b1-3)GalNAc
Outline: as §1

[17] = target: GlcNAc(b1-3)Gal(b1-4)GlcNAc(b1-3)GalNAc
Outline: as §1

[18] = target: GlcNAc(b1-3)Gal(b1-4)GlcNAc(b1-3)[GlcNAc(b1-3)Gal(b1-4)GlcNAc(b1-3)]GalNAc
Outline: as §1

[19] = target: GlcNAc(b1-3)Gal(b1-4)GlcNAc(b1-6)[Gal(b1-3)]GalNAc
Outline: as §1

[20] = target: GlcNAc(b1-3)Gal(b1-4)GlcNAc(b1-6)[GlcNAc(b1-3)Gal(b1-3)]GalNAc
Outline: as §1

[21] = target: GlcNAc(b1-3)Gal(b1-4)GlcNAc(b1-6)[GlcNAc(b1-3)]Gal(b1-4)GlcNAc
Outline: as §1

GlcNAc(b1-3)GalNAc = target: GlcNAc(b1-3)GalNAc
Outline: as §1

GlcNAc(b1-3)Man = target: GlcNAc(b1-3)Man
Outline: as §1

[22] = target: GlcNAc(b1-3)[GlcNAc(b1-4)][GlcNAc(b1-6)]GlcNAc
Outline: as §1

[23] = target: GlcNAc(b1-3)[GlcNAc(b1-6)]Gal(b1-4)GlcNAc
Outline: as §1

[24] = target: GlcNAc(b1-3)[GlcNAc(b1-6)]GalNAc
Outline: as §1

[25] = target: GlcNAc(b1-4)Gal(b1-4)GlcNAc
Outline: as §1

GlcNAc(b1-4)GlcNAc = target: GlcNAc(b1-4)GlcNAc
Outline: as §1

[26] = target: GlcNAc(b1-4)GlcNAc(b1-4)GlcNAc
Outline: as §1

[27] = target: GlcNAc(b1-4)GlcNAc(b1-4)GlcNAc(b1-4)GlcNAc(b1-4)GlcNAc
Outline: as §1

[28] = target: GlcNAc(b1-4)GlcNAc(b1-4)GlcNAc(b1-4)GlcNAc(b1-4)GlcNAc(b1-4)GlcNAc
Outline: as §1

[29] = target: GlcNAc(b1-4)[GlcNAc(b1-6)]GalNAc
Outline: as §1

[30] = target: GlcNAc(b1-6)Gal(b1-4)GlcNAc
Outline: as §1

GlcNAc(b1-6)GalNAc = target: GlcNAc(b1-6)GalNAc
Outline: as §1

B1: GST-Gap1 (Streptococcus parasanguinis), A1C3L5 (protein)
chain: MFYFVPSWYNGQRQWYYDTPWWFRVKNRMTFDDSVNQVKMFLQGQEEIGLMILNYQPQLRYFLHKQNIFGIYYWSFFDDIQNITRSYTKIIHLKDLNWPEGCEFLYSPFAVVVRLKGEIFAIVNYAEDGNLHSVSFQKNGKVTKDYIFDDRGFLSSILYYDIDERPLYQDYLNINGVWQVREFLKKENDPTPILMINDFSDQTFSKKYYNGWEELIKERLAIFQNNHVENEDVFVLASDTQHNQLVSSIFKEHRKIYSFFGNRFNLENLGQDRISINDATFLVVDTEKNEELLRKTCENLVFKSIPIVRLSPFDSRLRLGHSQTVKEQIIYFHIDNIELDELYSVIAIILELMTLHLDIELRIVTFRQDFQLDLLKTWIIDFIKTNHFEDLLFKQISEGENEIEDEGEIELSRIAMECFTNENQIIKCLDTARLVIDLGIEPDLYTQIASISAGIPQINRVSSDYVIHQKNGLVISDISKLSSAIEFYFDGLFNWNEALIYAVRKMSDYTSGKILKQWKGMLKKK
Q: How did the “glycan array binding signal (z-score)” value (GlcNAc(b1-3)Fuc) turn out when B1 was run?
A: 0.13

Q: And the “glycan array binding signal (z-score)” value (GlcNAc(b1-3)Gal)?
A: -0.541

Q: What about the “glycan array binding signal (z-score)” value [1] of the same binder?
A: 0.063

Q: What about the “glycan array binding signal (z-score)” value (GlcNAc(b1-3)Gal(b1-4)Glc) of the same binder?
A: -0.405

Q: And the “glycan array binding signal (z-score)” value [2]?
A: -0.484

Q: What about the “glycan array binding signal (z-score)” value [3] of the same binder?
A: 0.668

Q: And the “glycan array binding signal (z-score)” value [4]?
A: 0.312

Q: And the “glycan array binding signal (z-score)” value [5]?
A: 0.029

Q: What about the “glycan array binding signal (z-score)” value [6] of the same binder?
A: 0.087

Q: What about the “glycan array binding signal (z-score)” value [7] of the same binder?
A: 1.22

Q: And the “glycan array binding signal (z-score)” value [8]?
A: 0.101

Q: And the “glycan array binding signal (z-score)” value [9]?
A: 1.57

Q: What about the “glycan array binding signal (z-score)” value [10] of the same binder?
A: 0.212

Q: And the “glycan array binding signal (z-score)” value [11]?
A: 2.14

Q: What about the “glycan array binding signal (z-score)” value [12] of the same binder?
A: 0.187

Q: What about the “glycan array binding signal (z-score)” value [13] of the same binder?
A: 0.361

Q: What about the “glycan array binding signal (z-score)” value [14] of the same binder?
A: -0.16

Q: What about the “glycan array binding signal (z-score)” value [15] of the same binder?
A: 0.811

Q: And the “glycan array binding signal (z-score)” value [16]?
A: -1.17

Q: And the “glycan array binding signal (z-score)” value [17]?
A: 1.04

Q: And the “glycan array binding signal (z-score)” value [18]?
A: -1.42

Q: And the “glycan array binding signal (z-score)” value [19]?
A: -1.37

Q: And the “glycan array binding signal (z-score)” value [20]?
A: 0.223

Q: And the “glycan array binding signal (z-score)” value [21]?
A: -0.843

Q: And the “glycan array binding signal (z-score)” value (GlcNAc(b1-3)GalNAc)?
A: 0.134

Q: What about the “glycan array binding signal (z-score)” value (GlcNAc(b1-3)Man) of the same binder?
A: -0.28

Q: And the “glycan array binding signal (z-score)” value [22]?
A: -0.452

Q: What about the “glycan array binding signal (z-score)” value [23] of the same binder?
A: -0.47

Q: And the “glycan array binding signal (z-score)” value [24]?
A: 0.668

Q: And the “glycan array binding signal (z-score)” value [25]?
A: 0.808

Q: And the “glycan array binding signal (z-score)” value (GlcNAc(b1-4)GlcNAc)?
A: -0.323

Q: What about the “glycan array binding signal (z-score)” value [26] of the same binder?
A: -0.14

Q: What about the “glycan array binding signal (z-score)” value [27] of the same binder?
A: 0.363

Q: And the “glycan array binding signal (z-score)” value [28]?
A: -0.206

Q: And the “glycan array binding signal (z-score)” value [29]?
A: -0.353

Q: And the “glycan array binding signal (z-score)” value [30]?
A: 0.478

Q: And the “glycan array binding signal (z-score)” value (GlcNAc(b1-6)GalNAc)?
A: -0.423

— the supplement of paper PMC8728848
